# Measurements: the supplement of paper PMC8728848
# The list shows a part of the results.
# B1: Sp8391B-bot-388-20-388 (Bacteroides ovatus) (protein)
# chain: GCQNNDENEQHYDNKLFISASNFTKEILFKAGDTNVETGLSVAIAKPEEHDIKVTMSPAPELLSTYKLAYYDETAVLLSEEHYSMPETSTTIKSGSIVSPELPIEFINTGELDIKTTYVLPVTIKSVEGIGVLQSAKTYYYVFRGASLINVVCNISRNRAYPDFKNDSKFNNLTENTMEILFKANSFPNTLNTLMGIESNYLLRIGDATIPNNQLQVATSVNNCTSADLQLESGKWYHVAVAFNKGNVKVYINGVEKLSGSTGKSSVSLGAKHTNEEDGSRCFWVGYSYKDDRYFDGVVSEVRIWNRALTAEEIQATNHFYTIEPESEGLIAYWKFDEGSGTVAKDYSVSGYDLTIEKEPKWESVSLPQ
# Columns and labels:
# Assay in all cases: glycan array binding signal (z-score within array); higher = stronger binding
# Details in all cases: glycan notation: IUPAC condensed, linker removed
# Fuc(a1-3)GlcNAc = molecular target: Fuc(a1-3)GlcNAc
# Method in brief: (§1)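 Negative Z-scores can be read as non-binding. The Z-score is calculated within each array and then averaged across arrays of one protein sequence at different concentrations or buffers and across linkers. Arrays, 3228 in all, were curated from the Consortium for Functional Glycomics database and kept only where the protein sequence was available.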
# [1] = molecular target: Fuc(a1-3)[Gal(b1-4)]Glc6S
# Method in brief: as §1
# [2] = molecular target: Fuc(a1-3)[Gal(b1-4)]GlcNAc
# Method in brief: as §1
# [3] = molecular target: Fuc(a1-3)[Gal(b1-4)]GlcNAc(b1-2)Man
# Method in brief: as §1
# [4] = molecular target: Fuc(a1-3)[Gal(b1-4)]GlcNAc(b1-2)Man(a1-3)[Fuc(a1-3)[Gal(b1-4)]GlcNAc(b1-2)Man(a1-6)]Man(b1-4)GlcNAc(b1-4)GlcNAc
# Method in brief: as §1
# [5] = molecular target: Fuc(a1-3)[Gal(b1-4)]GlcNAc(b1-2)Man(a1-3)[Fuc(a1-3)[Gal(b1-4)]GlcNAc(b1-2)Man(a1-6)]Man(b1-4)GlcNAc(b1-4)[Fuc(a1-6)]GlcNAc
# Method in brief: as §1
# [6] = molecular target: Fuc(a1-3)[Gal(b1-4)]GlcNAc(b1-3)Gal(b1-3)[Fuc(a1-4)]GlcNAc
# Method in brief: as §1
# [7] = molecular target: Fuc(a1-3)[Gal(b1-4)]GlcNAc(b1-3)Gal(b1-4)[Fuc(a1-3)]GlcNAc
# Method in brief: as §1
# [8] = molecular target: Fuc(a1-3)[Gal(b1-4)]GlcNAc(b1-3)Gal(b1-4)[Fuc(a1-3)]GlcNAc(b1-3)Gal(b1-4)[Fuc(a1-3)]GlcNAc
# Method in brief: as §1
# [9] = molecular target: Fuc(a1-3)[Gal(b1-4)]GlcNAc(b1-3)GalNAc
# Method in brief: as §1
# [10] = molecular target: Fuc(a1-3)[Gal(b1-4)]GlcNAc(b1-6)GalNAc
# Method in brief: as §1
# [11] = molecular target: Fuc(a1-3)[Gal(b1-4)]GlcNAc(b1-6)[Gal(b1-3)GlcNAc(b1-3)]Gal(b1-4)Glc
# Method in brief: as §1
# [12] = molecular target: Fuc(a1-3)[Gal(b1-4)]GlcNAc6S
# Method in brief: as §1
# [13] = molecular target: Fuc(a1-3)[Gal3S(b1-4)]Glc
# Method in brief: as §1
# [14] = molecular target: Fuc(a1-3)[Gal3S(b1-4)]GlcNAc
# Method in brief: as §1
# [15] = molecular target: Fuc(a1-3)[Gal3S(b1-4)]GlcNAc6S
# Method in brief: as §1
# [16] = molecular target: Fuc(a1-3)[GalNAc(b1-4)]GlcNAc
# Method in brief: as §1
# [17] = molecular target: Fuc(a1-3)[GalNAc(b1-4)]GlcNAc6S
# Method in brief: as §1
# Fuc(a1-4)GlcNAc = molecular target: Fuc(a1-4)GlcNAc
# Method in brief: as §1
# Fuc(b1-3)GlcNAc = molecular target: Fuc(b1-3)GlcNAc
# Method in brief: as §1
# Gal(a1-2)Gal = molecular target: Gal(a1-2)Gal
# Method in brief: as §1
# Gal(a1-3)Gal = molecular target: Gal(a1-3)Gal
# Method in brief: as §1
# Gal(a1-3)Gal(b1-3)GlcNAc = molecular target: Gal(a1-3)Gal(b1-3)GlcNAc
# Method in brief: as §1
# [18] = molecular target: Gal(a1-3)Gal(b1-3)GlcNAc(b1-2)Man
# Method in brief: as §1
# [19] = molecular target: Gal(a1-3)Gal(b1-3)GlcNAc(b1-2)Man(a1-3)[Gal(a1-3)Gal(b1-3)GlcNAc(b1-2)Man(a1-6)]Man(b1-4)GlcNAc(b1-4)GlcNAc
# Method in brief: as §1
# [20] = molecular target: Gal(a1-3)Gal(b1-3)GlcNAc(b1-3)GalNAc
# Method in brief: as §1
# [21] = molecular target: Gal(a1-3)Gal(b1-3)GlcNAc(b1-6)GalNAc
# Method in brief: as §1
# [22] = molecular target: Gal(a1-3)Gal(b1-3)[Fuc(a1-4)]GlcNAc(b1-2)Man(a1-3)[Gal(a1-3)Gal(b1-3)[Fuc(a1-4)]GlcNAc(b1-2)Man(a1-6)]Man(b1-4)GlcNAc(b1-4)GlcNAc
# Method in brief: as §1
# Gal(a1-3)Gal(b1-4)Glc = molecular target: Gal(a1-3)Gal(b1-4)Glc
# Method in brief: as §1
# Gal(a1-3)Gal(b1-4)GlcNAc = molecular target: Gal(a1-3)Gal(b1-4)GlcNAc
# Method in brief: as §1
binder,measurement,setting,value
B1,glycan array binding signal (z-score),Fuc(a1-3)GlcNAc,-0.481
same,glycan array binding signal (z-score),[1],0.341
same,glycan array binding signal (z-score),[2],0.177
same,glycan array binding signal (z-score),[3],-0.257
same,glycan array binding signal (z-score),[4],0.155
same,glycan array binding signal (z-score),[5],0.98
same,glycan array binding signal (z-score),[6],-0.095
same,glycan array binding signal (z-score),[7],0.859
same,glycan array binding signal (z-score),[8],-0.3
same,glycan array binding signal (z-score),[9],-0.297
same,glycan array binding signal (z-score),[10],4.03
same,glycan array binding signal (z-score),[11],-0.595
same,glycan array binding signal (z-score),[12],-0.314
same,glycan array binding signal (z-score),[13],-0.651
same,glycan array binding signal (z-score),[14],-0.709
same,glycan array binding signal (z-score),[15],-0.537
same,glycan array binding signal (z-score),[16],0.276
same,glycan array binding signal (z-score),[17],-0.385
same,glycan array binding signal (z-score),Fuc(a1-4)GlcNAc,-0.039
same,glycan array binding signal (z-score),Fuc(b1-3)GlcNAc,-0.126
same,glycan array binding signal (z-score),Gal(a1-2)Gal,0.399
same,glycan array binding signal (z-score),Gal(a1-3)Gal,0.757
same,glycan array binding signal (z-score),Gal(a1-3)Gal(b1-3)GlcNAc,0.784
same,glycan array binding signal (z-score),[18],-0.818
same,glycan array binding signal (z-score),[19],0.772
same,glycan array binding signal (z-score),[20],-0.341
same,glycan array binding signal (z-score),[21],0.225
same,glycan array binding signal (z-score),[22],8.13
same,glycan array binding signal (z-score),Gal(a1-3)Gal(b1-4)Glc,-0.621
same,glycan array binding signal (z-score),Gal(a1-3)Gal(b1-4)GlcNAc,-0.489

# Laid out differently: results already given
binder | measurement | setting | value
B1 | glycan array binding signal (z-score) | [11] | -0.595
same | glycan array binding signal (z-score) | [13] | -0.651
same | glycan array binding signal (z-score) | [14] | -0.709
same | glycan array binding signal (z-score) | [15] | -0.537
same | glycan array binding signal (z-score) | [17] | -0.385
same | glycan array binding signal (z-score) | Fuc(a1-4)GlcNAc | -0.039
same | glycan array binding signal (z-score) | Gal(a1-3)Gal(b1-3)GlcNAc | 0.784
same | glycan array binding signal (z-score) | Gal(a1-3)Gal(b1-4)Glc | -0.621
